One molecule from US12396984B2, “Managing microbial dysbiosis with temocillin” (Entasis Therapeutics, Inc., priority 2019, dated 2025) can be followed below.

The test system of the assay is AIEC strain (Phylotype D). Description: GI AIEC decolonization murine model. Format: in vivo, C57BL/6J mice. The conditions noted are these: 30 mg/kg by oral gavage, post-treatment, FIG. 1. On the procedure: A GI AIEC decolonization murine model studies were performed using a previously published murine model as the basis and run in accordance with animal ethical guidelines at an external contract research organization. Healthy C57BL/6J mice were first administered streptomycin by oral gavage. An AIEC strain (Phylotype D) was then administered at approximately 1-5×10^6 cfu per mouse by oral gavage and fecal pellets were enumerated for AIEC burden. Upon stable colonization (usually after 48 h post-AIEC administration), mice were sorted into three groups of 4 animals each. […] The third group was the control and was given an equivalent volume of sterile saline by oral gavage. Fecal pellets were recovered at various times as indicated on the X-axis of FIG. 1 and AIEC burden quantified by dilution and plating. Two successive fecal pellets were recovered from each mouse per group to sufficiently power the data.

`O=C(O)c1cn(C2CC2)c2cc(N3CCNCC3)c(F)cc2c1=O` [Ciprofloxacin]: the “AIEC burden after cessation of treatment (rebound)” value was “showed a rebound effect”. Further, where the note is “listed as ciprofloxacin”, the “AIEC burden after cessation of treatment (rebound)” value is “began to show a re-bound effect following day 7 after treatment cessation”.
